Data from doi:10.1101/2021.11.02.466974.
These are yes or no findings as the source states them, for the method shown. In cells and extracts the contact can be indirect. A result given as binding can be weak or reduced; the word gives no strength.

The chains behind the UniProt entries cited, without tags or fusion partners. Where a name states a change or a piece, a line headed by the entry shows the natural chain unless it says otherwise.
UniProt P01375: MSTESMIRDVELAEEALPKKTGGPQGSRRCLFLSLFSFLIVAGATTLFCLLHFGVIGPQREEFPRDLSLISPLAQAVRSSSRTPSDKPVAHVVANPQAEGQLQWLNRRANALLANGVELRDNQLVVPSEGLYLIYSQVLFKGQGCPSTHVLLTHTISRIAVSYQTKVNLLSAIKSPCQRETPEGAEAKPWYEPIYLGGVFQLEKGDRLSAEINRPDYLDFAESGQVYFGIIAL

Biological target: recombinant HS-TNFα (UniProt P01375)
Assay: pull-down

binding: binds
B1: endogenous mouse N4BP1 (NEDD4-binding protein 1) (protein, UniProt Q6A037 1-893)
chain: MAARVVLDEFTAPAEKAALLERSRGRIEALFGVGLAVLGALGAEEPLPARIWLQLRGAQEAVHSAKEYIKGICEPELEEKECYPKAMHCIFVGAQSLFLKSLIQDTCADLCVLDTGLLGIRGSAEAVVMARSHIQQFVKLFESNENLPSNQRESEIKREFRQFVEAHADSYTMDLLILPTSLKKELLSLTQGEESLFETDDDVITVGDVRPPEYTQSAATGPSSARDEVVVQEDSRNKARTPVSELTKHMDTVFSSSPDVLFVPVNGLSPDEDALSKDRVCHKRRSSDTEERHTKKQFSLENVPEGELLPDGKGSAGNEVIDLSDPASNSTNLSPDGKDTTEEMEYNILVNFFKTMGYSQEIVEKVIREYGPSTEPLLLLEEIEKENKRLQEDRDFPPCTVYPDASQSRNAGVGSTTNELTADSTPKKAQSHTEQSMVERFSQLPFKDSKHCTSNCKVNSFRTVPVGQKQEIWGSKQNSSCTVDLETDGHSASAASASPKDISFVSRGASGHQQRNPAFPENGFQQQTEPLLPNNTKPACEKRSGSCSSPQPKPNYPPLSPPLPLPQLLPSVTEARLGGSSDHIDSSVTGVQRFRDTLKIPYKLELKNEPGRADLKHIVIDGSNVAITHGLKKFFSCRGIAIAVEYFWKLGNRNITVFVPQWRTRRDPNITEQHFLTQLQELGILSLTPARMVFGERIASHDDRFLLHLADKTGGIIVTNDNFREFVTESVSWREIITKRLLQYTFVGDIFMVPDDPLGRNGPRLEEFLRKEAFLRHMQPLLNALPSVGTFDPGFRSPSTQVANNSHQPPPRIQTSSSPWLPQQSHFTALATLPSMQQNPPLPAQRSSAETSELREALLKIFPDSEQKLKIDQILAAHPYMKDLNALSALVLD
